Measurements taken from the supplement of paper PMC10849652.
The list shows a part of the results.

Protein sequences, listed by entry. Tags and fused reporters are not part of them. Lines headed by an entry give the natural chain unless they say otherwise; changes in a name come on top.
UniProt Q9NX57: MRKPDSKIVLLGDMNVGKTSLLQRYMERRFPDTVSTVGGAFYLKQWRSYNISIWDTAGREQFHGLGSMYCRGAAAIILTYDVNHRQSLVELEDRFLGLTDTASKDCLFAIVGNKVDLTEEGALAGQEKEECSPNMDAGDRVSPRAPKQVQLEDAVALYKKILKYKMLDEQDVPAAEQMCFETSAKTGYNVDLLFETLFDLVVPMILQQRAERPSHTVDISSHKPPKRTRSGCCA
UniProt Q99638: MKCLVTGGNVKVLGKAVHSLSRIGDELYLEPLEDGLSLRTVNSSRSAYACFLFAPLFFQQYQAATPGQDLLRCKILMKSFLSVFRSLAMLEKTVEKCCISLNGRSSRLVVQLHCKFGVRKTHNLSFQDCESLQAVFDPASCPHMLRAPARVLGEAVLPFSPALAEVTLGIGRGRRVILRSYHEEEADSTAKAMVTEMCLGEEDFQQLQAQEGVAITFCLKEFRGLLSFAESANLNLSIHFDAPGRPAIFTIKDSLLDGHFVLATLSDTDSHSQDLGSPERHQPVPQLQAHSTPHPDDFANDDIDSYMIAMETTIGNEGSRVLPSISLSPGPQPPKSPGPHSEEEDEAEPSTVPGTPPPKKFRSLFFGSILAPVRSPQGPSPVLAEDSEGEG
UniProt P47736: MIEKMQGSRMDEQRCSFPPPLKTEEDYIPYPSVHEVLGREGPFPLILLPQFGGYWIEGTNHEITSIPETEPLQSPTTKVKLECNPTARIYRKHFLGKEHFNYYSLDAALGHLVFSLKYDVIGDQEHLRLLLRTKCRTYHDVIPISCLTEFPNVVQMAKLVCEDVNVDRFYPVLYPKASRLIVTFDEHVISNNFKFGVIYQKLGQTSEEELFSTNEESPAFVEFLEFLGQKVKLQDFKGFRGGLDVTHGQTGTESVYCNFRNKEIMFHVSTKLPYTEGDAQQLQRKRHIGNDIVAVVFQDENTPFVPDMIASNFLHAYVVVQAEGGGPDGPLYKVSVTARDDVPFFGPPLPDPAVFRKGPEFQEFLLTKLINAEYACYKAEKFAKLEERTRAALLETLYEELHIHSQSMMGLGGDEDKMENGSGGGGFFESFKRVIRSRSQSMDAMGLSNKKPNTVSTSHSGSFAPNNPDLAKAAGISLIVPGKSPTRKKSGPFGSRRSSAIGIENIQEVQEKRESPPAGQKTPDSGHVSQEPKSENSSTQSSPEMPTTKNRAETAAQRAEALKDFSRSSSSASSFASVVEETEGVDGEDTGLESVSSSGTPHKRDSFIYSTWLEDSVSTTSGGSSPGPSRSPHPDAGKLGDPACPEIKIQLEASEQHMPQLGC
UniProt Q9H082: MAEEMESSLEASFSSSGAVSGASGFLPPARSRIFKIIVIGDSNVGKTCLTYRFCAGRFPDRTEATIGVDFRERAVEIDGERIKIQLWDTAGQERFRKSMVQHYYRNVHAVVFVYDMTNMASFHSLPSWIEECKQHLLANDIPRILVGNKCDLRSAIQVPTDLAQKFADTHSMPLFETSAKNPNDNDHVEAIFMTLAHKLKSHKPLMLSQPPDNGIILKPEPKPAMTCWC
UniProt Q92878: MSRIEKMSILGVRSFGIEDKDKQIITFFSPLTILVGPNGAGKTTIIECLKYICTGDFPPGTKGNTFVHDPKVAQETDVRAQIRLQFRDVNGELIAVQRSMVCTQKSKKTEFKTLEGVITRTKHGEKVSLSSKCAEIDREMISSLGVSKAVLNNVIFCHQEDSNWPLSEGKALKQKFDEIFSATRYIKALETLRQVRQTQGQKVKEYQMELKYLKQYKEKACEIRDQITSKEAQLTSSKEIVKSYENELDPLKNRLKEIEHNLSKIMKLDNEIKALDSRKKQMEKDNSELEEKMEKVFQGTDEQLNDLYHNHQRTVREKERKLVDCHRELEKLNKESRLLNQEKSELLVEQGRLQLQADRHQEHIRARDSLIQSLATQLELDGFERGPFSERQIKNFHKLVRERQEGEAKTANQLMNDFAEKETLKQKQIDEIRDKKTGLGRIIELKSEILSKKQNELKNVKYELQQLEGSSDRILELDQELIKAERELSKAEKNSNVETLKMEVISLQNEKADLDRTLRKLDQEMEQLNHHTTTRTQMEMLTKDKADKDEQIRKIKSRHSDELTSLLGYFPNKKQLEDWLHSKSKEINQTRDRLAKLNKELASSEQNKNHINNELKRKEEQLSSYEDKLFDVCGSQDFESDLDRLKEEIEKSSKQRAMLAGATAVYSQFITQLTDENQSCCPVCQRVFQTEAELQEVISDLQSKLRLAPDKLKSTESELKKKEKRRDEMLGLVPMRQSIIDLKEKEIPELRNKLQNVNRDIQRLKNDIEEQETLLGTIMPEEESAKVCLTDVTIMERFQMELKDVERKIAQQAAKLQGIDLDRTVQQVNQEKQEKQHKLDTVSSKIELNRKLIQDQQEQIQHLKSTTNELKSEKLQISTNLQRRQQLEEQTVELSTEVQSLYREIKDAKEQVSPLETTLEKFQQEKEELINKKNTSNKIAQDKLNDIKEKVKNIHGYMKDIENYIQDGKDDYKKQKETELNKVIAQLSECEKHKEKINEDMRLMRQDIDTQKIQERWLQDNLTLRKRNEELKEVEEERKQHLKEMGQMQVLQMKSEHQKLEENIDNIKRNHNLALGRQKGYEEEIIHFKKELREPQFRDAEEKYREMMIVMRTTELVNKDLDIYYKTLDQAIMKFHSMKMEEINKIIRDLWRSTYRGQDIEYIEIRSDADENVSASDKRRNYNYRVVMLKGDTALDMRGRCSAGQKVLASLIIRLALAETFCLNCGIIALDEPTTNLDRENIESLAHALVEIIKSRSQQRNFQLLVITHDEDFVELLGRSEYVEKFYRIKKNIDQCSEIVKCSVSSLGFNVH
UniProt O43502: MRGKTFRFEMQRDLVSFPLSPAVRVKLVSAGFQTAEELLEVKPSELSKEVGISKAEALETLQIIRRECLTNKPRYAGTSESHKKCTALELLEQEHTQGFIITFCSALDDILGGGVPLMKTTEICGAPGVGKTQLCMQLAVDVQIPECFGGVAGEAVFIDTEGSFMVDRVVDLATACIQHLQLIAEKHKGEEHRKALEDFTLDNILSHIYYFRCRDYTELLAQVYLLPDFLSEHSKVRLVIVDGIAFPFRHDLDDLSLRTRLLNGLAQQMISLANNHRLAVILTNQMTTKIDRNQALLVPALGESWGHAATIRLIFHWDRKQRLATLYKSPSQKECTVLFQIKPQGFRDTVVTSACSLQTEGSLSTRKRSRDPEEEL
UniProt Q9NTZ6: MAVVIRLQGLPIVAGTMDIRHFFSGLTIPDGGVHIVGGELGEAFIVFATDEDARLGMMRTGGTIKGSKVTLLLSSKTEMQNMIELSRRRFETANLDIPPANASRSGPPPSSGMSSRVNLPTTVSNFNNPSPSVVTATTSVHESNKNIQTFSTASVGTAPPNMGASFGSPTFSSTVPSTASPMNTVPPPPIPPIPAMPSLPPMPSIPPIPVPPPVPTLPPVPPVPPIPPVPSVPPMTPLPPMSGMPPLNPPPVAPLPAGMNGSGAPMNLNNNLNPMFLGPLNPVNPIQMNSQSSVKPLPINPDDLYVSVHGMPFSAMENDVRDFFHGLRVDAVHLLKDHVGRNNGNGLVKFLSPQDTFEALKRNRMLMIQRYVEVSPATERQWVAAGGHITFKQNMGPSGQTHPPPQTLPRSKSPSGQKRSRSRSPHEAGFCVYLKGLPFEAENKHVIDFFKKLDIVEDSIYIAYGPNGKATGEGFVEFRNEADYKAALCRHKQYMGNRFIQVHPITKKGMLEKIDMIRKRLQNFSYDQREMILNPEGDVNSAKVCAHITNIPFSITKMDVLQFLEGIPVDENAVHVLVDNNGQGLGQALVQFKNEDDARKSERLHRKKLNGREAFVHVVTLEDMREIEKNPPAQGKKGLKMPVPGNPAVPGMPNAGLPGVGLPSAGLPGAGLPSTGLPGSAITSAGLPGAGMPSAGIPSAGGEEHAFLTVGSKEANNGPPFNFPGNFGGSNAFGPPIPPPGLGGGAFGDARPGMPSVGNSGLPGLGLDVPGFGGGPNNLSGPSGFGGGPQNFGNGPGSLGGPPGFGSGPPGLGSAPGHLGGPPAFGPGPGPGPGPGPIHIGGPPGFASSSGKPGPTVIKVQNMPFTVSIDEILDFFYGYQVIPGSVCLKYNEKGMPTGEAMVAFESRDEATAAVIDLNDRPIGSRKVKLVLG
UniProt P61019: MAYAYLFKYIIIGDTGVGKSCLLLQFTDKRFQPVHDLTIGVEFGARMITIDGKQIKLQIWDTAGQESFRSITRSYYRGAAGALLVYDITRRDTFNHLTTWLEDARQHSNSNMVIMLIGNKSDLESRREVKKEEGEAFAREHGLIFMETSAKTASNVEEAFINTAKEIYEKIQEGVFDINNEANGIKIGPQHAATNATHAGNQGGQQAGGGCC
UniProt Q9P0K7: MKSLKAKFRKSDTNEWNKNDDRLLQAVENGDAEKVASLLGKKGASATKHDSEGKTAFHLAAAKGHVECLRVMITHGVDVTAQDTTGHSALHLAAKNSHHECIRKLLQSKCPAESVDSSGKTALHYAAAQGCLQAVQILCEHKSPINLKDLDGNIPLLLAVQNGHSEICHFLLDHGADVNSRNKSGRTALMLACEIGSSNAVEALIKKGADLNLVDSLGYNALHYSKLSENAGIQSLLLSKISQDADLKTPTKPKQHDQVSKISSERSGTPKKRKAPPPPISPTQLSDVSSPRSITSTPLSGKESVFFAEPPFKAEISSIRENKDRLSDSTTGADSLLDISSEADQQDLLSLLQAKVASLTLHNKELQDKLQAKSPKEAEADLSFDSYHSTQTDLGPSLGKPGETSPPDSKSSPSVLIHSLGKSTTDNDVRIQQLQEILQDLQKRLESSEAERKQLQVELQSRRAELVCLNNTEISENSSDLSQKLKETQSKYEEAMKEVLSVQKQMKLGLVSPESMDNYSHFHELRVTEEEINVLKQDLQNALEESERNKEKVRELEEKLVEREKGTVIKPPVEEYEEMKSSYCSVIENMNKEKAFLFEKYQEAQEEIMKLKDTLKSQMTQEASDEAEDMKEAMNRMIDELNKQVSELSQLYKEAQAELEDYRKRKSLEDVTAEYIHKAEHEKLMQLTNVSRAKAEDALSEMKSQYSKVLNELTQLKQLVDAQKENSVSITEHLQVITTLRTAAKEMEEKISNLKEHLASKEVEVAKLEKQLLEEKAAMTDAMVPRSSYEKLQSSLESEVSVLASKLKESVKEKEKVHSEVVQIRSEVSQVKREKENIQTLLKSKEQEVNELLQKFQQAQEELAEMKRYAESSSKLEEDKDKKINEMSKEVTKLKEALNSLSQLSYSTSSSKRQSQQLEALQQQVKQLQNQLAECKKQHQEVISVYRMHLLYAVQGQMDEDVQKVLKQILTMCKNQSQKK
UniProt Q96I25: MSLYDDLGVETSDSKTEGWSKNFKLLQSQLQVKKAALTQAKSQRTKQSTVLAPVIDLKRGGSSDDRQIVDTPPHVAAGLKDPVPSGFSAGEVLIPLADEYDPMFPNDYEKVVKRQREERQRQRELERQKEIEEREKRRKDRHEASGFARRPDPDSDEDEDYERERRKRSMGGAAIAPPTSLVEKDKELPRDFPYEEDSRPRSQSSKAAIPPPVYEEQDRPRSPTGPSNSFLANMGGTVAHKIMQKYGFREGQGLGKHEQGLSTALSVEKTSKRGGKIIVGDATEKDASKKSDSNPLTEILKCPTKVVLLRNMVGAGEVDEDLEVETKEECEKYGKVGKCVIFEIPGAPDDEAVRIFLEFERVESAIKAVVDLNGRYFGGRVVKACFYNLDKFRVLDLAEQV

Legend:
Assay in all cases: log2 fold change, soluble protein after heating vs DMSO (PISA); higher = thermal stabilisation; K562 cells, 10 uM, 30 min; active = over 0.2 and 3.5 SD of the protein, either way, in both replicates (recomputed)
erlotinib = compound: C#Cc1cccc(Nc2ncnc3cc(OCCOC)c(OCCOC)cc23)c1 [erlotinib]
Procedure, shortened: (§1)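 Thermal stability values are relative to control samples and come from duplicates. They are expressed as log2 fold changes. For measurement, K562 cells (2×10^6 cells/mL) received 10 μM compound for 30 min, and aliquots were heated for 3 min over 48°C-58°C, pooled, and extracted at 4°C in PBS with 0.5% NP-40. Soluble protein, the supernatant after 21,000xg for 90 min, was quantified by TMTpro 16plex LC-MS/MS with equalised channel sums.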

[1] = compound: C/C(=N\NC(=O)C1=CC(=CC=C1)S(=O)(=O)N2CCOCC2)/C3=C(C=CC(=C3)Cl)O
Procedure, shortened: as §1

[2] = compound: C1=CC(=C(C=C1Cl)C2=NC3=NC=CN=C3C(=N2)NC4=CC=NC=C4)F
Procedure, shortened: as §1

[3] = compound: C1=CC(=CC=C1C2=NC3=C(N2)C=C(C=C3)C(=O)N)OC4=CC=C(C=C4)Cl
Procedure, shortened: as §1

[4] = compound: C1=CC2=C(C=CC(=C2)/C=C\3/C(=O)NC(=NCC4=CC=CS4)S3)N=C1
Procedure, shortened: as §1

[5] = compound: C1=CC2=NC=CN=C2C=C1/C=C/3\C(=O)NC(=O)S3
Procedure, shortened: as §1

[6] = compound: C1=CC=C(C=C1)C2=NC(=C(N2)C3=CC=NC=C3)C4=CC(=C(C=C4)Cl)O
Procedure, shortened: as §1

[7] = compound: C1=CC=C2C(=C1)C3=NNC4=CC=CC(=C43)C2=O
Procedure, shortened: as §1

[8] = compound: C1CCN(C1)C(=O)NC2=CC=CC(=C2)NC3=NC=C(C(=N3)NCCC4=CN=CN4)Br
Procedure, shortened: as §1

[9] = compound: C1CN(CCC1(CC2=CC=C(C=C2)Cl)N)C3=NC=NC4=C3C=CN4
Procedure, shortened: as §1

Measured: log2 fold change

RAB20 (UniProt Q9NX57)
inactive: erlotinib -0.002 | [1] 0.051 | [2] -0.012 | [3] -0.012 | [4] -0.057 | [5] 0.055 | [6] -0.005 | [7] -0.036 | [8] -0.018 | [9] 0.052

RAD9A (UniProt Q99638)
inactive: erlotinib 0.018 | [1] 0.1 | [2] 0.037 | [3] 0.008 | [4] -0.006 | [5] -0.008 | [6] 0.06 | [7] -0.025 | [8] -0.022 | [9] 0.047

RAP1GAP isoform 4 (UniProt P47736)
inactive: erlotinib 0.059 | [1] 0.106 | [2] -0.056 | [3] 0.03 | [4] -0.016 | [5] -0.055 | [6] -0.008 | [7] 0.139 | [8] -0.096 | [9] -0.048

RAB27A (UniProt P51159)
inactive: erlotinib -0.001 | [1] 0.056 | [2] 0.031 | [3] -0.039 | [4] 0.028 | [5] 0.016 | [6] -0.003 | [7] 0.003 | [8] 0.022 | [9] 0.015

RAB33B (UniProt Q9H082)
inactive: erlotinib 0.059 | [1] 0.031 | [2] 0.028 | [3] -0.029 | [4] -0.08 | [5] -0.012 | [6] -0.079 | [7] 0.025 | [8] -0.016 | [9] 0.118

RAD50 isoform 2 (UniProt Q92878)
inactive: erlotinib 0.02 | [1] 0.034 | [2] 0.076 | [3] 0.001 | [4] 0.029 | [5] 0 | [6] 0.02 | [7] 0.015 | [8] -0.034 | [9] 0.029

RAB8A isoform 2 (UniProt P61006)
inactive: erlotinib -0.058 | [1] 0.133 | [2] 0.025 | [3] 0.047 | [4] -0.067 | [5] 0.055 | [6] -0.06 | [7] -0.019 | [8] 0.01 | [9] 0.039

RAD51C (UniProt O43502)
inactive: erlotinib 0.034 | [1] 0.013 | [2] 0.099 | [3] 0.009 | [4] 0.06 | [5] 0 | [6] 0.017 | [7] 0.013 | [8] -0.007 | [9] 0.109

2 neighbouring records already listed, quoted:
RAD50 isoform 2 (UniProt Q92878)
inactive: erlotinib 0.02 | [1] 0.034 | [2] 0.076 | [3] 0.001 | [4] 0.029 | [5] 0 | [6] 0.02 | [7] 0.015 | [8] -0.034 | [9] 0.029

RAB8A isoform 2 (UniProt P61006)
inactive: erlotinib -0.058 | [1] 0.133 | [2] 0.025 | [3] 0.047 | [4] -0.067 | [5] 0.055 | [6] -0.06 | [7] -0.019 | [8] 0.01 | [9] 0.039

(list continues)

RABGAP1L isoform 3 (UniProt Q5R372)
inactive: erlotinib 0.087 | [1] 0.052 | [2] 0.161 | [3] -0.021 | [4] 0.029 | [5] 0.033 | [6] -0.001 | [7] 0.035 | [8] 0.004 | [9] 0.007

RBM12 (UniProt Q9NTZ6)
inactive: erlotinib 0.092 | [1] 0.187 | [2] 0.123 | [3] -0.022 | [4] 0.117 | [5] -0.003 | [6] -0.008 | [7] 0.011 | [8] -0.046 | [9] 0.006

RANBP2 (UniProt P49792)
inactive: erlotinib -0.107 | [1] 0.007 | [2] 0.062 | [3] 0.081 | [4] 0.082 | [5] 0.003 | [6] -0.007 | [7] -0.028 | [8] 0.005 | [9] 0

RAB3IP (UniProt Q96QF0)
inactive: erlotinib -0.008 | [1] -0.179 | [2] 0.233 | [3] 0.04 | [4] 0.2 | [5] -0.009 | [6] -0.036 | [7] -0.066 | [8] -0.137 | [9] 0.015

RAB2A (UniProt P61019)
inactive: erlotinib -0.024 | [1] -0.004 | [2] 0.041 | [3] -0.005 | [4] 0.017 | [5] 0.074 | [6] 0.014 | [7] 0.02 | [8] 0.012 | [9] 0.019

RAI14 isoform 2 (UniProt Q9P0K7)
inactive: erlotinib 0.076 | [1] -0.068 | [2] -0.029 | [3] 0.02 | [4] 0.072 | [5] 0.06 | [6] 0.041 | [7] -0.106 | [8] 0.04 | [9] 0.03

RBM17 (UniProt Q96I25)
inactive: erlotinib 0.039 | [1] 0.044 | [2] 0.015 | [3] -0.023 | [4] -0.085 | [5] -0.029 | [6] 0.1 | [7] 0.011 | [8] -0.08 | [9] -0.16
